In the odorant receptor screen of Mainland et al. (2015):
Several values for one entry are separate records, joined by “and”; a condition that tells them apart may be missing. Identical values can stand only once. Some of the results follow. Each value is one well over the wells without odorant, computed here; the data are noisy.

Tests used:
Assay in all cases: odorant receptor activation (CRE luciferase / Renilla) (fold of no-odor wells); higher = more activation
Conditions in all cases: 100 µM
[1] = system: OR2J2 Y74H/T111A/V146A/T218A clone 1402
OR2J2 clone 1403 = system: OR2J2 clone 1403
OR2J2 clone 1404 = system: OR2J2 clone 1404
[2] = system: OR2J3 I228V/M261I clone 1616
OR2K2 clone 1340 = system: OR2K2 clone 1340
OR2K2 clone 1450 = system: OR2K2 clone 1450
OR2L13 clone 1481 = system: OR2L13 clone 1481
OR2L2 clone 1465 = system: OR2L2 clone 1465
OR2L3 clone 1526 = system: OR2L3 clone 1526
OR2L5 clone 1697 = system: OR2L5 clone 1697
OR2L8 clone 1515 = system: OR2L8 clone 1515
[3] = system: OR2M2 R220G/C235R clone 1494
OR2M3 clone 1054 = system: OR2M3 clone 1054
OR2M4 clone 1053 = system: OR2M4 clone 1053
OR2M5 clone 1167 = system: OR2M5 clone 1167
[4] = system: OR2M7 F35L/V78A/C178F clone 1378
[5] = system: OR2M7 F35L/V78A/C178F/D191N clone 1401
OR2M7 clone 1377 = system: OR2M7 clone 1377
OR2S2 clone 1462 = system: OR2S2 clone 1462
OR2T1 P132L clone 1474 = system: OR2T1 P132L clone 1474

SMILES	odorant receptor activation [1]	odorant receptor activation (OR2J2 clone 1403)	odorant receptor activation (OR2J2 clone 1404)	odorant receptor activation [2]	odorant receptor activation (OR2K2 clone 1340)	odorant receptor activation (OR2K2 clone 1450)	odorant receptor activation (OR2L13 clone 1481)	odorant receptor activation (OR2L2 clone 1465)	odorant receptor activation (OR2L3 clone 1526)	odorant receptor activation (OR2L5 clone 1697)	odorant receptor activation (OR2L8 clone 1515)	odorant receptor activation [3]	odorant receptor activation (OR2M3 clone 1054)	odorant receptor activation (OR2M4 clone 1053)	odorant receptor activation (OR2M5 clone 1167)	odorant receptor activation [4]	odorant receptor activation [5]	odorant receptor activation (OR2M7 clone 1377)	odorant receptor activation (OR2S2 clone 1462)	odorant receptor activation (OR2T1 P132L clone 1474)
CCC(C)=O [2-butanone]	0.855	0.659	1.21	1.31	0.514	0.861	0.95	1.11	1.19	0.831	1.44	0.971	2.09	3.62	1.12	1.32	0.931	1.12	1.07	0.94
CS [methanethiol]	0.907	0.852	0.892	0.675	0.83	0.85	0.676	0.995	1.09	0.601	0.877	0.95	1.23	1.45	0.819	0.928	0.914	0.998	0.818	0.939
CCCCOC(C)=O [butyl acetate]	0.287	0.31	0.334	0.854	0.816	0.206	0.84	1.05	1.13	0.518	1.6	0.774	1.03	1.3	1.03	0.213	0.247	0.192	0.751	0.855
CCOc1cc(C=O)ccc1O [ethyl vanillin]	0.991 and 1.3	1.33 and 1.3	2.01 and 2.64	1.8	3.29 and 1.12	1.32 and 2.95 and 1.26	1.17 and 1.72 and 1.26	1.11 and 1.93 and 1.27	1.26 and 1.9 and 1.21	0.871	1.03 and 2.13 and 1.19	1.3 and 1.96 and 1.08	1.26 and 1.1	1.69 and 1.03	1.39 and 1.05	0.959 and 1.41	1.28 and 1.03	0.869 and 0.981	0.853 and 2.51 and 1.25	1.25 and 1.5 and 1.06
